# The other results are listed elsewhere or left out. These are further read-outs of the screen, such as a control signal, another cell line or another target. No call is given for them. The list favours compounds with an active or inconclusive main result. The note in brackets gives the kind of curve behind each potency; many fits are weak.
# Assay: qHTS Assay for Modulators of Lamin A Splicing
# Conditions: HeLa LMNA splicing GFP/RFP minigene ratio, 48 h
# Method in brief: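 S3 HeLa cells stably expressing lamin A-EGFP splicing minigene plus DsRed2, 600 cells/well, 48 h compound exposure at 37C. Laser-scanning cytometry; analysed as GFP (500-530 nm)/RFP (575-640 nm) total intensity ratio; 0.5% DMSO vehicle.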
# [1] = measured here: GFP splicing reporter channel
# [2] = measured here: RFP viability control channel
SMILES,AC50 [1],AC50 [2]
Cc1ccc(C)c(NC(=O)c2cc(-c3cccnc3)nc3ccccc23)c1,"10 µM [falling, partial curve]","0.2 µM [falling, full curve, poor fit]"
CCN(CC)C(=S)SCC(=O)c1ccc(F)cc1,"20 µM [falling, single point]","25.1 µM [falling, single point]"
Cc1cc(NC(=O)COc2ccc(Cl)cc2Cl)n(CCC#N)n1,"14.1 µM [rising, single point]","20 µM [rising, partial curve]"
O=c1[nH]c(=O)n(C2CC(O)C(CO)O2)cc1F (configuration not stated),"2.24 µM [rising, full curve]","0.00398 µM [rising, full curve, poor fit]"
CCC(C)NC(=O)CCC(=O)N1Cc2ccccc2Oc2ncccc21 (configuration not stated),,"17.8 µM [rising, partial curve, poor fit]"
Cc1ccc(NC(=S)NC(NC(=O)c2ccccc2C)C(Cl)(Cl)Cl)c(C)c1 (configuration not stated),"35.5 µM [falling, single point]","35.5 µM [falling, single point]"
CCOc1ccc(C2=Cc3cc(OC)c(OC)cc3C(=C(Cl)Cl)O2)cc1,"25.1 µM [rising, single point]",
Cc1ccc(S(=O)(=O)Nc2ccc3nc(-c4ccc(F)cc4)oc3c2)cc1,"25.1 µM [falling, single point]","14.1 µM [falling, partial curve]"
CCOC(=O)CNC(=S)N(Cc1ccc(C)cc1)Cc1ccc(C)o1,"14.1 µM [rising, single point]","14.1 µM [rising, single point]"
FC(F)(F)c1ccc(/C=N/N2CCN(Cc3ccccc3)CC2)cc1,,"12.6 µM [rising, single point]"
Nc1cc[n+](CC(=O)Nc2ccccc2)cc1,,"12.6 µM [falling, single point]"
CCCCCCNc1c(C(=O)OCC)c(=O)[nH]c2ccccc12,"12.6 µM [rising, partial curve]","11.2 µM [rising, partial curve]"
Cc1cccc(CNc2cc(-c3c(C)noc3C)ncn2)c1,"12.6 µM [falling, partial curve]",
Cc1ccc(CNC(=O)c2c(C)oc3ncnc(N4CCOCC4)c23)cc1,"4.47 µM [falling, full curve, poor fit]","6.31 µM [falling, partial curve, poor fit]"
CC1=CC(C)(C)N2C(=O)C3(NCCc4c3[nH]c3ccccc43)c3cc(C)cc1c32 (configuration not stated),,"5.01 µM [rising, partial curve]"
O=C(CCSc1ccccc1)Nc1nc2c(s1)CCCC2,,"35.5 µM [rising, single point]"
O=C(COC(=O)Cc1c[nH]c2ccccc12)NC1CCCCC1,"2 µM [rising, full curve, poor fit]",
O=C(CSc1ncnc2c1oc1ccccc12)N1CCCc2ccccc21,,"11.2 µM [rising, partial curve, poor fit]"
COc1cccc(NC(=O)C(OC(=O)c2ccccc2NS(=O)(=O)c2cccs2)c2ccccc2)c1 (configuration not stated),"7.94 µM [rising, partial curve]","14.1 µM [rising, partial curve, poor fit]"
COc1cc(OC)c(N(C)C(=O)c2c(C)oc3ncn(CC(C)C)c(=O)c23)cc1Cl,"0.00891 µM [falling, full curve, poor fit]",
COc1cccc(-n2c(SCC(=O)Nc3cc(C)on3)nc3ccccc3c2=O)c1,,"10 µM [rising, partial curve, poor fit]"
Cc1ccc(NC(=O)Cn2cc(S(=O)(=O)Cc3ccc(F)cc3)c3ccccc32)cc1Cl,"12.6 µM [rising, partial curve, poor fit]","31.6 µM [rising, single point]"
CCN1C(=O)/C(=C2\SC(=S)N(CCCOC)C2=O)c2ccccc21,"3.98 µM [falling, single point]","3.98 µM [falling, single point]"
COc1ccc(-c2cc(C(F)(F)F)c3c(n2)sc2c(O)cc(=O)[nH]c23)c(OC)c1,,"12.6 µM [rising, partial curve]"
COc1cccc(Nc2ncnc3ccccc23)c1,,"35.5 µM [rising, single point]"

# 7 consecutive entries out of the list so far, quoted:
SMILES,AC50 [1],AC50 [2]
O=C(COC(=O)Cc1c[nH]c2ccccc12)NC1CCCCC1,"2 µM [rising, full curve, poor fit]",
O=C(CSc1ncnc2c1oc1ccccc12)N1CCCc2ccccc21,,"11.2 µM [rising, partial curve, poor fit]"
COc1cccc(NC(=O)C(OC(=O)c2ccccc2NS(=O)(=O)c2cccs2)c2ccccc2)c1 (configuration not stated),"7.94 µM [rising, partial curve]","14.1 µM [rising, partial curve, poor fit]"
COc1cc(OC)c(N(C)C(=O)c2c(C)oc3ncn(CC(C)C)c(=O)c23)cc1Cl,"0.00891 µM [falling, full curve, poor fit]",
COc1cccc(-n2c(SCC(=O)Nc3cc(C)on3)nc3ccccc3c2=O)c1,,"10 µM [rising, partial curve, poor fit]"
Cc1ccc(NC(=O)Cn2cc(S(=O)(=O)Cc3ccc(F)cc3)c3ccccc32)cc1Cl,"12.6 µM [rising, partial curve, poor fit]","31.6 µM [rising, single point]"
CCN1C(=O)/C(=C2\SC(=S)N(CCCOC)C2=O)c2ccccc21,"3.98 µM [falling, single point]","3.98 µM [falling, single point]"

# Source: PubChem BioAssay AID1487 (National Center for Advancing Translational Sciences (NCATS), 2009)
